Data: PubChem BioAssay AID1259415 (National Center for Advancing Translational Sciences (NCATS), 2018)
Out of some 410,000 compounds screened, about 18,000 (4.4%) were called active. Inconclusive results, whose numbers are uncertain, are shown with a selection of clear calls. No stated cut-off is given here; in the data, active means activity change below about -60%; inconclusive means no clear call, values can overlap the other calls; inactive means above about -39%.

Test: qHTS Assay for inhibitors of the human cytomegalovirus (HCMV)
Settings: HFF cells, HCMV-luciferase reporter, 72 h; at 57.5 µM; active compounds read low
Method in brief: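 Steps: HFFs plated, 16 h 37C; compounds added; HCMV-luciferase added to MOI 1 PFU/cell; 72 h 37C; OneGlo reagent, 5 min room temperature; luminescence read, normalized to controls.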
On the % scale 0 is the no-effect control and ±100 the full control effect.

SMILES	activity change, negative = inhibition
COc1cc(-c2nc3ccc(Cl)cn3c2Nc2ccc3c(c2)OCO3)ccc1O	inactive: -24.4%
CCCCOc1ccc(C(=O)Nc2cccc(-n3cnnn3)c2)cc1OC	inconclusive: -40.4%
Cc1ccc(/C=N/NC(=O)c2c(-c3ccccc3)noc2C)o1	inconclusive: -48.2%
Cn1cc(-c2cc3n(n2)CCC(=O)N3CCCC(=O)Nc2ccccc2Cl)c2ccccc21	active: -61.8%
COc1ccc(-c2cc3ccc(OCC(C)=O)cc3oc2=O)cc1	inactive: 72.4%
O=C(Nc1ccccc1)N1C2CCC1CC(O)(c1cccnc1)C2 (stereo unspecified)	inactive: 60.1%
FC(F)Oc1ccc(N=C2SCC3CCCCN23)cc1 (stereo unspecified)	inactive: 16.6%
COc1ccccc1CCc1nnc(CCC(=O)NC(C)Cc2ccsc2)o1 (stereo unspecified)	inactive: -28.3%
Cc1cc2oc3ccc(NCCC4CCCN4C)cc3c(=O)c2cc1C (stereo unspecified)	inconclusive: -46.8%
Cc1ccccc1OCC(=O)Nc1ccc(N2CCN(C(=O)c3ccco3)CC2)cc1	active: -72.8%
COC(=O)CCCC1=CC2=CC(=O)C(C)(OC(=O)c3cccs3)C(=O)C2=CN1c1ccc(OC)cc1 (stereo unspecified)	inactive: -34.5%
Cc1c(NC(=O)C(C)Sc2nccn2C)c(=O)n(-c2ccccc2)n1C (stereo unspecified)	inconclusive: -48.8%
Cc1ccc2nc(-c3ccc(NC(=O)CSc4ccccc4)cc3)[nH]c2c1	inconclusive: -44.7%
Nc1c(C(=O)NCCc2ccccc2)sc2nc(N3CCOCC3)c3c(c12)CCCC3	inconclusive: -41.7%
COCCNC(=S)N1CCN(c2nc(-c3ccccc3)cs2)CC1	inconclusive: -58%
O=C(c1ccc2ccccc2c1)C1CCCN(S(=O)(=O)c2cccnc2)C1 (stereo unspecified)	inconclusive: -54.9%
O=C(CSc1n[nH]c(=O)n1-c1cccnc1)Nc1ccccc1Cl	inconclusive: -55.8%
Cc1ccc(S(=O)(=O)c2cc3c(=O)n4ccccc4nc3n(CCc3ccccc3)c2=N)cc1	inactive: 13.1%
CCN(CC)CC(O)COCCC12CC3CC(CC(C3)C1)C2 (stereo unspecified)	inconclusive: -51.4%
CCOC(=O)c1c(NC(=O)CSc2nncs2)sc(C)c1-c1ccccc1	active: -63.9%
COc1ccc(Cc2nc3ccc(C(=O)N(C)Cc4nccn4C)cc3o2)cc1	inactive: -8.47%
CCCCCn1c(=O)[nH]c2cc(C(=O)NCc3ccc(F)cc3)ccc2c1=O	inactive: 3.62%

SMILES	activity change, negative = inhibition
O=C(CC1CCCCC1)c1c(O)c2ccccc2oc1=O	active: -68.1%
CCN(CC)S(=O)(=O)c1ccc(NN=C2CCN(C(C)C)CC2)c([N+](=O)[O-])c1	inconclusive: 0%
CC(=O)OC1CC2(O)C3CCC4CC(O)CCC4(C)C3CCC2(C)C1C1=CC(=O)OC1 (stereo unspecified)	active: -97%
Cc1ccc(Nc2nc(NCc3ccccc3)nc3ccsc23)c(C)c1	active: -62%
Cc1cccc(OCCCSc2nc(-c3ccc(C(C)(C)C)cc3)nc3cc(=O)[nH]n23)c1C	inconclusive: -48%
CC(=O)C1=CCC(c2ccccc2)N(Cc2ccccc2)C1 (stereo unspecified)	inconclusive: -52.8%
O=C1/C(=C/c2cccs2)SC(=S)N1CCCC(=O)N(CCO)c1ccccc1	active: -97.6%
COc1ccc(C/C(C)=N/NC(=S)Nc2ccc(Cl)cc2)cc1	inactive: -14.9%
CC(C)Cn1c(=O)c2c(nc3n2CC(C)CN3Cc2ccccc2)n(C)c1=O (stereo unspecified)	inconclusive: -45.1%
Cc1ccc(-c2nc3cnccn3c2Nc2ccccc2)o1	inactive: -26.1%
COc1ccc(N(C(=O)c2ccco2)C(C(=O)NC2CCCC2)c2cc(OC)c(OC)c(OC)c2)cc1 (stereo unspecified)	inactive: 6.86%
O=C(c1ccc(CS(=O)c2ccccc2Cl)o1)N1CCN(c2cccc(C(F)(F)F)c2)CC1 (stereo unspecified)	active: -96%
CC(=NNc1ccccc1)C(C)=NNc1ccccc1	inconclusive: -55.9%
CCn1c(=O)cc(OCC(=O)Nc2ccc(C)cn2)c2ccccc21	active: -60.8%
COc1ccc(OC(F)(F)F)cc1CC1(C)C(=O)Nc2ccc(-c3ccsc3)cc21 (stereo unspecified)	active: -82%
Cc1cc(C)c(NC(=S)N2CCC(N(C)CC3CCCO3)CC2)c(C)c1 (stereo unspecified)	active: -72.4%
CCC1(c2ccc(F)cc2)NC(=O)N(CC(=O)N2CCN(C(=O)c3ccco3)CC2)C1=O (stereo unspecified)	inactive: -13.1%
COc1ccc(-c2cc(C)no2)cc1S(=O)(=O)N(C)c1ccc(C)c(C)c1	inconclusive: -59.2%
Cc1cc(NC(=O)CSc2nnc(-c3ccccc3Cl)o2)no1	inconclusive: -44.4%
O=C(Cn1c2c(c(-c3ccccc3Cl)cc1=O)CCC2)N1CCC2(CC1)OCCO2	inconclusive: -43.4%
C/C(=N\NC(=O)c1n[nH]c2c1CCC2)c1ccco1	active: -65.1%
O=C(Nc1ncccc1O)c1cccc(S(=O)(=O)N2CCCc3ccccc32)c1	inactive: -8.43%

SMILES	activity change, negative = inhibition
Cc1cc(C)c(NC(=O)COC(=O)c2cccc3c2C(=O)c2ccccc2C3=O)c(C)c1	inconclusive: -45.5%
Cc1cc(C)cc(Nc2ncnc3nc[nH]c23)c1	inactive: 19.3%
COC(=O)c1ccccc1NC(=O)Cc1ccccc1OC	inconclusive: -44.8%
Cn1c(CNC(=O)CNC(=O)Cc2ccc(Cl)cc2)cc(=O)n(C)c1=O	inconclusive: 0%
O=[N+]([O-])c1ccc(NN=Cc2cccc(O)c2)nc1	inactive: 40.5%
CCN(c1cccc(C)c1)S(=O)(=O)c1ccc2c(c1)CCN2C(C)=O	inconclusive: -53%
Cc1ccc(CSC2=Nc3ccccc3C3=NC(CCC(=O)NCc4ccco4)C(=O)N23)cc1 (stereo unspecified)	inactive: -5.92%
COC(=O)c1sccc1S(=O)(=O)N1CCN(c2cc(Cl)ccc2C)CC1	inactive: -13.8%
Cc1c(C(=O)NCc2ccccc2)sc2nc3n(c(=O)c12)CCCCC3	inconclusive: -42.1%
NC(=O)COC(=O)c1cccc(S(=O)(=O)N2CCN(c3ccccc3)CC2)c1	inconclusive: -51.7%
COc1ccc(NC(=O)C2CC2(Cl)Cl)cc1S(=O)(=O)N1CCCCC1 (stereo unspecified)	inactive: -39.3%
CC1C(=O)C(C)C(c2cccc(Br)c2)NC1c1cccc(Br)c1 (stereo unspecified)	inconclusive: -44%
O=C(Nc1cccc(S(=O)(=O)N2CCCCC2)c1)c1ccccc1NS(=O)(=O)c1ccc(F)cc1	active: -97.6%
COc1ccc(-c2csc(NC(=O)c3cccc(N4C(=O)CCC4=O)c3)n2)cc1C	inconclusive: -45.7%
Cc1ccc(C(=O)c2oc3ccccc3c2N)cc1	inactive: 121%
C=CCn1c(SCC(=O)c2[nH]c(C)c(C(=O)OCC)c2C)nc2scc(-c3ccc(OC)c(OC)c3)c2c1=O	active: -100%
Cc1ccccc1-c1nnc(SCCC(=O)N2CCOCC2)o1	inconclusive: -48.6%
S=c1[nH]nc(-c2ccncc2)n1Cc1ccccc1	inconclusive: -42.9%
COc1cc2c(c(OC)c1OC)-c1ccc(N(C)CC(OC)OC)c(=O)cc1[C@@H](NC(C)=O)CC2	active: -87.4%
COCCN(C(=O)c1cc2c(s1)CCCCC2)c1c(N)n(Cc2ccccc2)c(=O)[nH]c1=O	inconclusive: -40%
O=C(COc1ccccc1)N1CCN(c2nnc(-c3ccccc3)c3ccccc23)CC1	inconclusive: -44.7%
N/C(=N\OC(=O)C(c1ccccc1)c1ccccc1)c1cccnc1	inactive: 0.228%

SMILES	activity change, negative = inhibition
O=C(COC(=O)c1cc(-c2cccs2)nn1-c1ccccc1)Nc1cccc([N+](=O)[O-])c1	inconclusive: -43.3%
COc1ccc(N=C2SC(C(=O)O)CC(=O)N2C)cc1 (stereo unspecified)	inconclusive: -45.1%
COc1cc2ccccc2cc1C(=O)NC(=S)Nc1cccc(C(=O)O)c1C	inactive: -20.1%
O=C1NC(=Nc2cccc([N+](=O)[O-])c2)SC1(CO)CO	active: -64.5%
C#CC(C)(CC)NC(=O)Cn1nnc(-c2cccc(C(F)(F)F)c2)n1 (stereo unspecified)	inconclusive: -46.8%
COc1ccc(CC(=O)N2CC(C)CC(C)C2)cc1 (stereo unspecified)	inconclusive: -53.9%
Cc1cc(C)c(S(=O)(=O)N2CCCC2=O)c(C)c1	inconclusive: -41.4%
Cc1ccc(CNC(=O)c2sc3nc4c(c(C(F)(F)F)c3c2N)CCC4)cc1	inactive: -30.8%
CCCCC[C@@H](C)N1C[C@H](COCc2ccccc2)Oc2cc(N3CC[C@@H](N(C)C)C3)ccc2S1(=O)=O	active: -102%
CC(C)(C)OC(=O)N1CCC(c2c(C(=O)Nc3ccc4c(c3)OCCO4)cnn2-c2ccc(Cl)cc2)CC1	inactive: 0%
O=C(c1ccccc1)c1ccc(OC(=O)C2CCCCC2)cc1	inactive: 8.59%
CCC1CCC2(CC1)NC(=O)N(CC(=O)Nc1ccc(OC)c(Cl)c1)C2=O (stereo unspecified)	inconclusive: 0%
CN(Cc1ccc(C#CCCO)cc1)CC1CCCN(CCc2ccc(Cl)cc2)C1 (stereo unspecified)	inactive: -7.35%
COc1cc(/C=C(/C#N)c2ccc(F)cc2)ccc1OCc1ccc(C(=O)O)o1	inactive: 5.59%
CN(C(=O)C1CCN(c2ncnc3c2nc2n3CCCCC2)CC1)C1CCCCC1	inconclusive: -42.4%
CCn1cc2nc(SCC(=O)Nc3ccc(OC)c(OC)c3)n(Cc3ccc(Cl)cc3)c(=O)c2n1	inconclusive: -44%
Cc1cn2c(=O)cc(COC(=O)c3cccc(NC(=O)c4ccc(C(C)(C)C)cc4)c3)nc2s1	inactive: -21.4%
COc1cccc(Nc2ccc3cc(S(=O)(=O)N4CCC(C)CC4)ccc3n2)c1	active: -86.7%
CCCCC(=O)NCc1nc2cccnc2n1Cc1ccc(OC)cc1	inconclusive: -55%
Cc1ccc(C(=O)Nc2ccc(F)c(S(=O)(=O)N3CCOCC3)c2)s1	inactive: -2.67%

19 compounds out of the list, arranged by length of the SMILES, low to high.
SMILES	activity change, negative = inhibition
Cc1ccc(C(=O)c2oc3ccccc3c2N)cc1	inactive: 121%
S=c1[nH]nc(-c2ccncc2)n1Cc1ccccc1	inconclusive: -42.9%
Cc1cc(C)c(S(=O)(=O)N2CCCC2=O)c(C)c1	inconclusive: -41.4%
CCCCC(=O)NCc1nc2cccnc2n1Cc1ccc(OC)cc1	inconclusive: -55%
O=C1NC(=Nc2cccc([N+](=O)[O-])c2)SC1(CO)CO	active: -64.5%
COc1cc2ccccc2cc1C(=O)NC(=S)Nc1cccc(C(=O)O)c1C	inactive: -20.1%
CN(Cc1ccc(C#CCCO)cc1)CC1CCCN(CCc2ccc(Cl)cc2)C1 (stereo unspecified)	inactive: -7.35%
CN(C(=O)C1CCN(c2ncnc3c2nc2n3CCCCC2)CC1)C1CCCCC1	inconclusive: -42.4%
Cc1ccc(CNC(=O)c2sc3nc4c(c(C(F)(F)F)c3c2N)CCC4)cc1	inactive: -30.8%
COc1cc(/C=C(/C#N)c2ccc(F)cc2)ccc1OCc1ccc(C(=O)O)o1	inactive: 5.59%
COc1ccc(-c2csc(NC(=O)c3cccc(N4C(=O)CCC4=O)c3)n2)cc1C	inconclusive: -45.7%
COCCN(C(=O)c1cc2c(s1)CCCCC2)c1c(N)n(Cc2ccccc2)c(=O)[nH]c1=O	inconclusive: -40%
CCn1cc2nc(SCC(=O)Nc3ccc(OC)c(OC)c3)n(Cc3ccc(Cl)cc3)c(=O)c2n1	inconclusive: -44%
Cc1cn2c(=O)cc(COC(=O)c3cccc(NC(=O)c4ccc(C(C)(C)C)cc4)c3)nc2s1	inactive: -21.4%
O=C(Nc1cccc(S(=O)(=O)N2CCCCC2)c1)c1ccccc1NS(=O)(=O)c1ccc(F)cc1	active: -97.6%
COc1cc2c(c(OC)c1OC)-c1ccc(N(C)CC(OC)OC)c(=O)cc1[C@@H](NC(C)=O)CC2	active: -87.4%
CC(C)(C)OC(=O)N1CCC(c2c(C(=O)Nc3ccc4c(c3)OCCO4)cnn2-c2ccc(Cl)cc2)CC1	inactive: 0%
C=CCn1c(SCC(=O)c2[nH]c(C)c(C(=O)OCC)c2C)nc2scc(-c3ccc(OC)c(OC)c3)c2c1=O	active: -100%
CCCCC[C@@H](C)N1C[C@H](COCc2ccccc2)Oc2cc(N3CC[C@@H](N(C)C)C3)ccc2S1(=O)=O	active: -102%

2 of these compounds in a different format.
SMILES | activity change, negative = inhibition
COc1ccc(CC(=O)N2CC(C)CC(C)C2)cc1 (stereo unspecified) | inconclusive: -53.9%
CN(Cc1ccc(C#CCCO)cc1)CC1CCCN(CCc2ccc(Cl)cc2)C1 (stereo unspecified) | inactive: -7.35%
